Results taken from the supplement of paper PMC8728848.
Some of the results follow.

Columns and labels:
Test in all cases: glycan array binding signal (z-score within array); higher = stronger binding
Details in all cases: glycan notation: IUPAC condensed, linker removed
[1] = target: Neu5Ac(a2-3)Gal(b1-4)GlcNAc(b1-6)GalNAc
Summary of the method: (§1)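 From the Consortium for Functional Glycomics database, 3228 arrays were curated, keeping only those whose protein sequence was available. Binding is given as a within-array Z-score averaged across arrays sharing a protein sequence and across linkers. Negative Z-scores can be read as non-binding.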

[2] = target: Neu5Ac(a2-3)Gal(b1-4)GlcNAc(b1-6)[Gal(b1-3)]GalNAc
Summary of the method: as §1

[3] = target: Neu5Ac(a2-3)Gal(b1-4)GlcNAc(b1-6)[Neu5Ac(a2-3)Gal(b1-3)]GalNAc
Summary of the method: as §1

[4] = target: Neu5Ac(a2-3)Gal(b1-4)GlcNAc6S
Summary of the method: as §1

[5] = target: Neu5Ac(a2-3)Gal(b1-4)[Fuc(a1-3)]GlcNAc
Summary of the method: as §1

[6] = target: Neu5Ac(a2-3)Gal(b1-4)[Fuc(a1-3)]GlcNAc(b1-2)Man
Summary of the method: as §1

[7] = target: Neu5Ac(a2-3)Gal(b1-4)[Fuc(a1-3)]GlcNAc(b1-3)Gal
Summary of the method: as §1

[8] = target: Neu5Ac(a2-3)Gal(b1-4)[Fuc(a1-3)]GlcNAc(b1-3)Gal(b1-4)GlcNAc
Summary of the method: as §1

[9] = target: Neu5Ac(a2-3)Gal(b1-4)[Fuc(a1-3)]GlcNAc(b1-3)Gal(b1-4)[Fuc(a1-3)]GlcNAc(b1-3)Gal(b1-4)[Fuc(a1-3)]GlcNAc
Summary of the method: as §1

[10] = target: Neu5Ac(a2-3)Gal(b1-4)[Fuc(a1-3)]GlcNAc(b1-3)GalNAc
Summary of the method: as §1

[11] = target: Neu5Ac(a2-3)Gal(b1-4)[Fuc(a1-3)]GlcNAc(b1-6)[Gal(b1-3)]GalNAc
Summary of the method: as §1

[12] = target: Neu5Ac(a2-3)Gal(b1-4)[Fuc(a1-3)]GlcNAc(b1-6)[Neu5Ac(a2-3)Gal(b1-3)]GalNAc
Summary of the method: as §1

[13] = target: Neu5Ac(a2-3)Gal(b1-4)[Fuc(a1-3)]GlcNAc6S
Summary of the method: as §1

[14] = target: Neu5Ac(a2-3)Gal6S(b1-4)GlcNAc
Summary of the method: as §1

[15] = target: Neu5Ac(a2-3)Gal6S(b1-4)[Fuc(a1-3)]GlcNAc
Summary of the method: as §1

[16] = target: Neu5Ac(a2-3)GalNAc
Summary of the method: as §1

[17] = target: Neu5Ac(a2-3)GalNAc(b1-4)GlcNAc
Summary of the method: as §1

[18] = target: Neu5Ac(a2-3)[GalNAc(b1-4)]Gal(b1-4)Glc
Summary of the method: as §1

[19] = target: Neu5Ac(a2-3)[GalNAc(b1-4)]Gal(b1-4)GlcNAc
Summary of the method: as §1

[20] = target: Neu5Ac(a2-3)[GalNAc(b1-4)]Gal(b1-4)GlcNAc(b1-3)GalNAc
Summary of the method: as §1

[21] = target: Neu5Ac(a2-3)[Neu5Ac(a2-6)]GalNAc
Summary of the method: as §1

[22] = target: Neu5Ac(a2-6)Gal
Summary of the method: as §1

B1: EULS2 M3 (Oryza sativa) (protein)
chain: MVYCRANPNYAMTARNGAVVLAPANPKDEYQHWIKDMRWSTSIKDEEGYPAFALVNKATGQAIKHSLGQSHPVRLVPYNPEVMDESVLWTESRDVGNGFRCIRMVNNIYLNFDAFHGDKYHGGVRDGTDIVLWKLCEGDSLRWKIQPYYILEQKLISEEDLNSAVDHHHHHH
For B1, which “glycan array binding signal (z-score)” value [1] is on record?
Its value is 1.04.

What about the “glycan array binding signal (z-score)” value [2] of the same binder?
The value was -0.23.

What about the “glycan array binding signal (z-score)” value [3] of the same binder?
Its value is 0.062.

What about the “glycan array binding signal (z-score)” value [4] of the same binder?
The value was -0.422.

What about the “glycan array binding signal (z-score)” value [5] of the same binder?
The value was 0.452.

And the “glycan array binding signal (z-score)” value [6]?
Its value is 0.599.

And the “glycan array binding signal (z-score)” value [7]?
The value was 0.557.

And the “glycan array binding signal (z-score)” value [8]?
Its value is -0.586.

What about the “glycan array binding signal (z-score)” value [9] of the same binder?
Its value is -0.22.

What about the “glycan array binding signal (z-score)” value [10] of the same binder?
Its value is -0.173.

And the “glycan array binding signal (z-score)” value [11]?
Its value is -0.216.

What about the “glycan array binding signal (z-score)” value [12] of the same binder?
Its value is 0.296.

What about the “glycan array binding signal (z-score)” value [13] of the same binder?
The value was -0.425.

And the “glycan array binding signal (z-score)” value [14]?
Its value is -0.387.

And the “glycan array binding signal (z-score)” value [15]?
The value was -0.427.

And the “glycan array binding signal (z-score)” value [16]?
Its value is -0.085.

And the “glycan array binding signal (z-score)” value [17]?
Its value is -0.054.

And the “glycan array binding signal (z-score)” value [18]?
Its value is -0.273.

And the “glycan array binding signal (z-score)” value [19]?
The value was -0.121.

And the “glycan array binding signal (z-score)” value [20]?
Its value is 0.143.

And the “glycan array binding signal (z-score)” value [21]?
Its value is -0.159.

And the “glycan array binding signal (z-score)” value [22]?
Its value is -0.482.
